Measurements taken from patent US20100075908A1 (published 2010).
These are yes or no findings as the source states them, for the method shown. A result given as binding can be weak or reduced; the word gives no strength.

Biological target: purified GPIb (glycoprotein Ib)
Test: array of overlapping 10-mer vWf peptides on nitrocellulose probed with 1 mg/mL purified GPIb

binding: binds
Binder: SHAYIGLKDR [SHAYIGLKDR (SEQ ID NO:8)]
